PubChem BioAssay AID493246 | Drosophila RNAi Screening Center – 2011

Test: 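Identify essential fly genes by loss of cell viability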 (primary screen)
Cell system: Drosophila Kc and S2R+ cells
Reagent: long dsRNA against Drosophila genes
Read-out: 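Raw, unnormalised count of remaining cells in each well; per-plate z-scores of cell number underlie the calls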
Reading the numbers: Kc cell number and S2R+ cell number: higher = more cells remaining
Call rule: 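Active when the per-plate z-score of cell number is 3 or more in the direction of fewer cells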
The deposit covers about 21,000 reagents; below is an unselected part of those that have a named target and a result. Over the whole deposit, 429 (2%) were called active. 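Values are raw and not normalised between plates; calls rest on per-plate z-scores that were not deposited.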 Names joined by + are all predicted targets of the reagent. The record does not give: the amount of reagent, the time to read-out.

| gene knocked down | amplicon | Kc cell number, rep 1 | Kc cell number, rep 2 | S2R+ cell number, rep 1 | S2R+ cell number, rep 2 | call |
| --- | --- | --- | --- | --- | --- | --- |
| CG7514 | DRSC08597 | 1.48e6 | 1.33e6 | 1.19e6 | 1.23e6 | inactive |
| CG14315 | DRSC14794 | 1.38e6 | 1.41e6 | 1.12e6 | 1.24e6 | inactive |
| CG4291 | DRSC00650 | 1.41e6 | 1.39e6 | 1.03e6 | 1.20e6 | inactive |
| Rb97D (Ribonuclear protein at 97D) | DRSC16815 | 1.59e6 | 1.63e6 | 1.01e6 | 1.12e6 | inactive |
| Cln7 | DRSC11005 | 1.34e6 | 1.41e6 | 1.30e6 | 1.27e6 | inactive |
| Atg10 + CG12822 | DRSC06796 | 1.66e6 | 1.60e6 | 1.35e6 | 1.51e6 | inactive |
| lms (lateral muscles scarcer) | DRSC06387 | 1.60e6 | 1.40e6 | 9.91e5 | 1.24e6 | inactive |
| CG16820 | DRSC02522 | 1.40e6 | 1.44e6 | 1.23e6 | 1.37e6 | inactive |

Limited to “S2R+ cell number, rep 1” (3 entries from above):
Cln7 [DRSC11005]	1.30e6
Atg10 + CG12822 [DRSC06796]	1.35e6
lms (lateral muscles scarcer) [DRSC06387]	9.91e5

More entries follow:
| gene knocked down | amplicon | Kc cell number, rep 1 | Kc cell number, rep 2 | S2R+ cell number, rep 1 | S2R+ cell number, rep 2 | call |
| --- | --- | --- | --- | --- | --- | --- |
| robo1 (roundabout 1) | DRSC04712 | 1.52e6 | 1.62e6 | 1.20e6 | 1.38e6 | inactive |
| Trpm (Transient receptor potential cation channel, subfamily M) | DRSC06629 | 1.21e6 | 1.19e6 | 8.66e5 | 7.76e5 | inactive |
| Prm (Paramyosin) | DRSC08941 | 1.33e6 | 1.46e6 | 1.09e6 | 1.26e6 | inactive |
| Prm (Paramyosin) | DRSC08942 | 1.36e6 | 1.43e6 | 9.83e5 | 1.14e6 | inactive |
| Prm (Paramyosin) | DRSC11255 | 1.37e6 | 1.47e6 | 1.26e6 | 1.21e6 | inactive |
| l(2)37Bb (lethal (2) 37Bb) | DRSC02088 | 1.26e6 | 1.41e6 | 1.02e6 | 1.14e6 | inactive |
| PolD1 (DNA polymerase delta subunit 1) | DRSC11138 | 1.39e6 | 1.40e6 | 1.25e6 | 1.32e6 | inactive |
| ebd2 (earthbound 2) | DRSC11682 | 1.43e6 | 1.58e6 | 1.23e6 | 1.30e6 | inactive |
| Rich (RIC1 homolog) | DRSC11607 | 1.44e6 | 1.47e6 | 1.33e6 | 1.34e6 | inactive |
| Rab9D + Rab9Fa + Rab9E | DRSC19853 | 1.53e6 | 1.48e6 | 1.07e6 | 1.13e6 | inactive |
| Nemp (Nuclear envelope integral membrane protein) | DRSC20206 | 1.60e6 | 1.67e6 | 9.01e5 | 1.10e6 | inactive |
| CG17118 | DRSC02579 | 1.52e6 | 1.61e6 | 1.25e6 | 1.33e6 | inactive |
| CG11663 | DRSC17793 | 1.48e6 | 1.47e6 | 8.35e5 | 8.99e5 | inactive |
| CG9839 | DRSC16574 | 1.45e6 | 1.56e6 | 1.17e6 | 1.28e6 | inactive |
| CG4592 | DRSC02761 | 1.50e6 | 1.67e6 | 1.39e6 | 1.26e6 | inactive |
| CG33234 | DRSC07994 | 1.65e6 | 1.80e6 | 9.96e5 | 1.18e6 | inactive |
